According to the supplement of paper PMC6445147:
Values scatter widely in this assay.

B1: human tRNA-Pro; a variant is named by its letters at N, in order (parent)
chain: GGCTCGTTGGTCTAGNGGTATGATTCTCGCTTAGGGTGCGAGAGGTCCCGGGTTCNNATCCCGGACGAGCCC

Assays:
[1] = variants of: B1; test: tRNA Pol-III promoter activity, log2 (circRNA frequency / plasmid DNA frequency) (log2 ratio); higher = stronger promoter activity; conditions: HEK293T; construct: no Pol-II promoter ((-)CMV library)
[2] = variants of: B1; test: tRNA 3' processing efficiency (processed reads / all reads, maximum-likelihood estimate) (fraction); higher = more efficient 3' processing; conditions: HEK293T; construct: no Pol-II promoter ((-)CMV library)
[3] = variants of: B1; test: tRNA 5' processing efficiency (processed reads / all reads, maximum-likelihood estimate) (fraction); higher = more efficient 5' processing; conditions: HEK293T; construct: CMV Pol-II promoter ((+)CMV library, decapped)

Variant | tRNA Pol-III promoter activity (log2) [1] | tRNA 3' processing efficiency [2] | tRNA 5' processing efficiency [3]
GAA T8C G18A | -0.084 | 0.22 | –
GAA T8C G9C G15T T54G C55T A58C | 4.79 | 0.78 | –
GAA T8A A58G T59A | 3.25 | 0.4 | –
GAA T8A A58G T59G | 6.25 | 0.6 | –
GAA T8A G9C G15T G18C T19G A20T T53A T54A C55T | 5.26 | 0.3 | –
GAA T8C A14T A20T | 6.02 | 0.46 | –
GAA T8A G15C | 0.174 | 0.37 | –
GAA T8C | -0.657 | 0.6 | 0.44
GAA T8C A14T A58G | 4.1 | 0.33 | –
GAA T8C A14T A58C | 5.45 | 0.62 | –
GAA T8C A14T A58T | 5.74 | 0.14 | –
GAA T8C T19A A58C | 5.26 | 0.2 | –
GAA T8C T19A A58G | 6.53 | 0.5 | –
GAA T8C A14C | 1.62 | 0.27 | –
GAA T8C A14G | 2 | 0.39 | 0.5
GAA T8C A14T | -0.251 | 0.25 | 0.2
GAA T8C A58G T59A | 4.68 | 0.4 | –
GAA T8C A58G T59C | 4.93 | 0.13 | –
GAA T8C A58G T59G | 5.25 | 0.2 | –
GAA T8C G9A T19A T54A | 5.26 | 0.2 | –
AAA T8C G9A G15T G18T A58G | 6.62 | 0.89 | –
AAA T8A A14T G17C T54C A58C | 3.93 | 0.17 | –
GAA T8A A14G G15C G17A T53A | 4.45 | 0.5 | –

Variant | tRNA Pol-III promoter activity (log2) [1] | tRNA 3' processing efficiency [2] | tRNA 5' processing efficiency [3]
GAA T8C T53A T59G | 3.94 | 0.25 | –
GAA T8C G15C T19A | 3.94 | 0.62 | –
GAA T8A C55T | -1.73 | 0.5 | 0.4
GAA T8A C55A | 0.418 | 0.7 | –
CAA T8C T19G A58G | 6.51 | 0.33 | –
GAA T8C A20T A58C | 4.85 | 0.12 | –
GAA T8C T19A T53A | 4.1 | 0.67 | –
GAA T8C A20T T59C | 3.9 | 0.39 | –
CAA T8C T19G | 3.19 | 0.2 | –
TAA T8C T19G | 5.4 | 0.27 | –
GAA T8A A14T C55A | 2.21 | 0.33 | –
GAA T8A T54A | 1.36 | 0.13 | –
GAA T8A G15T G18T | 5.62 | 0.83 | –
GAA T8C T19C | 1.18 | 0.3 | 0.5
GAA T8C A14T T59C | 2.8 | 0.4 | –
GAA T8C A14T T59G | 3.12 | 0.25 | –
GAA T8C A14C T54A | 6.1 | 0.33 | –
GAA T8A T53G | 1.66 | 0.18 | –
GAA T8C A58T T59C | 4.07 | 0.2 | –
GAA T8C A58T T59A | 5.53 | 0.17 | –
GAA T8C A14G A20G | 1.77 | 0.25 | –
GAA T8A G17T G18A A58T | 5.2 | 0.56 | –
GAA T8C A14T G15T A58G | 5.36 | 0.4 | –

Variant | tRNA Pol-III promoter activity (log2) [1] | tRNA 3' processing efficiency [2] | tRNA 5' processing efficiency [3]
CAA T8C A58G | 7.03 | 0.75 | –
CAA T8C A58T | 4.42 | 0.25 | 0.2
GAA T8C A14G G15C T19A | 5.16 | 0.86 | –
GAA T8C T19G C55G | 3.62 | 0.25 | –
GAA T8A T53A C55A A58G | 4.93 | 0.17 | –
CAA T8C T53A | 7.39 | 0.36 | –
GAA T8C G9A G15A C55T | 4.71 | 0.5 | –
GAA T8C A20T T53A T59C | 3.93 | 0.4 | –
GAA T8C G15C T59G | 6.03 | 0.25 | –
CAA T8C A14G | 2.77 | 0.25 | –
GAA T8C A14G G15C | 3.13 | 0.25 | –
GAA T8A G18T | 0.287 | 0.14 | –
GAA T8A G18C | 2.08 | 0.75 | –
GAA T8C G15T T53A A58T | 4.36 | 0.5 | –
TAA T8C | 3.4 | 0.69 | 0.14
GAA T8C T19G T53G | 4.94 | 0.25 | –
GAA T8C T53C | 1.5 | 0.28 | –
GAA T8C T53A | 1.61 | 0.21 | 0.33
GAA T8C T53G | 0.547 | 0.45 | 0.14
GAA T8C A14C T59C | 4.45 | 0.25 | –
GAA T8C A14C T59G | 6.25 | 0.4 | –
GAA T8C G9A | 0.948 | 0.89 | –
GAA T8C G9A G18A | 3.29 | 0.14 | –

Variant | tRNA Pol-III promoter activity (log2) [1] | tRNA 3' processing efficiency [2] | tRNA 5' processing efficiency [3]
GAA T8C G18T T59A | 3.36 | 0.38 | –
GAA T8C C55T | 0.62 | 0.1 | –
GAA T8C G9T A20T | 3.21 | 0.56 | –
GAA T8A A58T | -0.38 | 0.2 | –
TAA T8C G17A G18A T19A T53G A58T | 3.74 | 0.71 | –
AAA T8C | 1.32 | 0.53 | –
GAA T8C A14C A58T | 3.42 | 0.25 | –
GAA T8C A14C A58G | 5.07 | 0.22 | –
GAA T8C A14C A58C | 6.51 | 0.78 | –
GAA T8C A20T T53A | 3.36 | 0.25 | –
TAA T8C A58T | 3.27 | 0.33 | –
CAA T8A G18T | 3.93 | 0.33 | –
GAA T8C G15C T53A | 3.71 | 0.25 | –
GAA T8C G15C A58C | 4.21 | 0.17 | –
GAA T8C T19C A58C | 4.26 | 0.2 | –
GAA T8C A20G | 1.45 | 0.67 | –
GAA T8C A20T | 2.54 | 0.33 | 0.25
TAA T8C C55T | 6.39 | 0.45 | –
GAA T8A A14G T59G | 2.84 | 0.29 | –
TAA T8C T53A | 6.91 | 0.64 | –
TAA T8C T53C | 6.91 | 0.92 | –
GAA T8A G15C G17T | 3.04 | 0.25 | –
GAA T8C T19C T53A | 3.81 | 0.5 | –

Variant | tRNA Pol-III promoter activity (log2) [1] | tRNA 3' processing efficiency [2] | tRNA 5' processing efficiency [3]
GAA T8A A14T | 0.127 | 0.75 | 0.33
GAA T8C A14T T19A | 3.13 | 0.25 | –
GAA T8C G9A G18A A20T T54A | 5.53 | 0.67 | –
GAA T8A G15T A20T A58T T59G | 7.94 | 0.06 | –
GAA T8A G15A G18T | 6.75 | 0.57 | –
AAA T8C A58G | 3.71 | 0.25 | –
AAA T8C A58T | 3.13 | 0.25 | –
AAA T8C A58C | 4.85 | 0.82 | –
GAA T8C G18A T53A | 5.94 | 0.25 | –
GAA T8C G9A A20T | 5.49 | 0.27 | –
GAA T8C G17C T59G | 4.26 | 0.57 | –
GAA T8C A14G A58C | 4.84 | 0.38 | –
GAA T8C A14T T19A A58G | 5.74 | 0.57 | –
GAA T8A T59C | 0.738 | 0.38 | –
GAA T8A T59A | 0.0926 | 0.35 | –
GAA T8C T19A T59A | 4.36 | 0.25 | –
GAA T8C T19A T59C | 5.36 | 0.4 | –
GAA T8A T19A A58G T59G | 4.03 | 0.8 | –
GAA T8C A58G | 0.56 | 0.13 | –
GAA T8C A58C | 0.0112 | 0.25 | –
GAA T8C A58T | 1.57 | 0.41 | –

Looked up one by one from above:
Variant | tRNA Pol-III promoter activity (log2) [1] | tRNA 3' processing efficiency [2] | tRNA 5' processing efficiency [3]
GAA T8A G18C | 2.08 | 0.75 | –
GAA T8C A58G T59C | 4.93 | 0.13 | –
CAA T8C A58T | 4.42 | 0.25 | 0.2
GAA T8C A14C | 1.62 | 0.27 | –
CAA T8C T19G | 3.19 | 0.2 | –
